Source: US9803180B2, “S-adenosylmethionine (SAM) synthase variants for the synthesis of artificial cofactors” (LEIBNIZ-INSTITUT FUR PFLANZENBIOCHEMIE STIFTUNG DES …, priority 2013, dated 2017)
Some results were stated once for a whole list of compounds, not compound by compound.

Experiment: Activity of further position 317 SAM synthase variants (Example 4)
Assay type: biochemical
Conditions: strongly reduced activity; substrate not stated
Excerpt: The influence of position 317 on catalytic turnover and its crucial role in determination of substrate spectrum was additionally confirmed by introduction of other small- and medium-sized amino acid residues.

| Substance | activity [nmol/min/mg] |
| --- | --- |
| I317D: Bacillus subtilis SAM synthase substituted at position 317 by aspartic acid | ≥ 5.4 |
| I317P: Bacillus subtilis SAM synthase substituted at position 317 by proline | ≥ 5.4 |
| I317L: Bacillus subtilis SAM synthase substituted at position 317 by leucine | ≥ 5.4 |
| I317E: Bacillus subtilis SAM synthase substituted at position 317 by glutamic acid | ≥ 5.4 |
| I317N: Bacillus subtilis SAM synthase substituted at position 317 by asparagine | ≥ 5.4 |
| I317G: Bacillus subtilis SAM synthase substituted at position 317 by glycine | ≥ 5.4 |
